Data reported in patent publication US20250283871A1, “COMPOSITIONS AND METHODS FOR MODULATING THE INTERACTION BETWEEN SS18-SSX FUSION ONCOPROTEIN AND NUCLEOSOMES” (Dana-Farber Cancer Institute, Inc., priority 2020, published 2025).

Test system: BAF complex subunits and histone proteins
Assay: Mass spectrometry proteomics of purified HA-SS18 WT and HA-SS18-SSX1 complexes (Tables 5A-5E)
Design: species or system human
Settings: for Total / Unique: HA-SS18SSX1_CHR_peptides; for Total: total peptides of the identified protein; for Unique: unique peptides of the identified protein; for Total (total peptides) / Unique (unique peptides) / Total (peptides) / Unique (peptides): HEK-293T
[1] = HA-SS18WT_CHR_peptides: protein identified in HA-SS18 WT BAF complex purification from nuclease-treated solubilized chromatin (CHR)
[2] = HA-SS18SSX1 purification, NE (soluble nuclear extract) fraction, peptides per identified protein
[3] = HA-SS18WT_CHR_peptides: HA-SS18 WT purification from nuclease-treated solubilized chromatin (CHR), label = protein identified
[4] = HA-SS18WT_NE_peptides: HA-SS18 WT complexes purified from nuclear extract (NE), label = protein identified (Gene Symbol)

Molecule	Total	Unique	Total (total peptides) [1]	Unique (unique peptides) [1]	Total (total peptides) [2]	Unique (unique peptides) [2]	Total (peptides) [3]	Unique (peptides) [3]	Total (peptides) [4]	Unique (peptides) [4]
GLE1 (protein, UniProt Q53GS7 1-698, looked up) mRNA export factor GLE1: MPSEGRCWETLKALRSSDKGRLCYYRDWLLRREDVLEECMSLPKLSSYSGWVVEHVLPHMQENQPLSETSPSSTSASALDQPSFVPKSPDASSAFSPASPATPNGTKGKDESQHTESMVLQSSRGIKVEGCVRMYELVHRMKGTEGLRLWQEEQERKVQALSEMASEQLKRFDEWKELKQHKEFQDLREVMEKSSREALGHQEKLKAEHRHRAKILNLKLREAEQQRVKQAEQERLRKEEGQIRLRALYALQEEMLQLSQQLDASEQHKALLKVDLAAFQTRGNQLCSLISGIIRASSESSYPTAESQAEAERALREMRDLLMNLGQEITRACEDKRRQDEEEAQVKLQEAQMQQGPEAHKEPPAPSQGPGGKQNEDLQVKVQDITMQWYQQLQDASMQCVLTFEGLTNSKDSQAKKIKMDLQKAATIPVSQISTIAGSKLKEIFDKIHSLLSGKPVQSGGRSVSVTLNPQGLDFVQYKLAEKFVKQGEEEVASHHEAAFPIAVVASGIWELHPRVGDLILAHLHKKCPYSVPFYPTFKEGMALEDYQRMLGYQVKDSKVEQQDNFLKRMSGMIRLYAAIIQLRWPYGNRQEIHPHGLNHGWRWLAQILNMEPLSDVTATLLFDFLEVCGNALMKQYQVQFWKMLILIKEDYFPRIEAITSSGQMGSFIRLKQFLEKCLQHKDIPVPKGFLTSSFWRS	4	4	2	2	–	–	–	–	–	–
DDX5 (protein, UniProt P17844 1-614, looked up) Probable ATP-dependent RNA …: MSGYSSDRDRGRDRGFGAPRFGGSRAGPLSGKKFGNPGEKLVKKKWNLDELPKFEKNFYQEHPDLARRTAQEVETYRRSKEITVRGHNCPKPVLNFYEANFPANVMDVIARQNFTEPTAIQAQGWPVALSGLDMVGVAQTGSGKTLSYLLPAIVHINHQPFLERGDGPICLVLAPTRELAQQVQQVAAEYCRACRLKSTCIYGGAPKGPQIRDLERGVEICIATPGRLIDFLECGKTNLRRTTYLVLDEADRMLDMGFEPQIRKIVDQIRPDRQTLMWSATWPKEVRQLAEDFLKDYIHINIGALELSANHNILQIVDVCHDVEKDEKLIRLMEEIMSEKENKTIVFVETKRRCDELTRKMRRDGWPAMGIHGDKSQQERDWVLNEFKHGKAPILIATDVASRGLDVEDVKFVINYDYPNSSEDYIHRIGRTARSTKTGTAYTFFTPNNIKQVSDLISVLREANQAINPKLLQLVEDRGSGRSRGRGGMKDDRRDRYSAGKRGGFNTFRDRENYDRGYSSLLKRDFGAKTQNGVYSAANYTNGSFGSNFVSAGIQTSFRTGNPTGTYQNGYDSTQQYGSNVPNMHNGMNQQAYAYPATAAAPMIGYPMPTGYSQ	4	4	–	–	4	4	4	4	4	4
RBM14 (protein, UniProt Q96PK6 1-669, looked up) RNA-binding protein 14: MKIFVGNVDGADTTPEELAALFAPYGTVMSCAVMKQFAFVHMRENAGALRAIEALHGHELRPGRALVVEMSRPRPLNTWKIFVGNVSAACTSQELRSLFERRGRVIECDVVKDYAFVHMEKEADAKAAIAQLNGKEVKGKRINVELSTKGQKKGPGLAVQSGDKTKKPGAGDTAFPGTGGFSATFDYQQAFGNSTGGFDGQARQPTPPFFGRDRSPLRRSPPRASYVAPLTAQPATYRAQPSVSLGAAYRAQPSASLGVGYRTQPMTAQAASYRAQPSVSLGAPYRGQLASPSSQSAAASSLGPYGGAQPSASALSSYGGQAAAASSLNSYGAQGSSLASYGNQPSSYGAQAASSYGVRAAASSYNTQGAASSLGSYGAQAASYGAQSAASSLAYGAQAASYNAQPSASYNAQSAPYAAQQAASYSSQPAAYVAQPATAAAYASQPAAYAAQATTPMAGSYGAQPVVQTQLNSYGAQASMGLSGSYGAQSAAAATGSYGAAAAYGAQPSATLAAPYRTQSSASLAASYAAQQHPQAAASYRGQPGNAYDGAGQPSAAYLSMSQGAVANANSTPPPYERTRLSPPRASYDDPYKKAVAMSKRYGSDRRLAELSDYRRLSESQLSFRRSPTKSSLDYRRLPDAHSDYARYSGSYNDYLRAAQMHSGYQRRM	4	4	–	–	4	4	6	6	3	3
